Data: article PMC7862700
The other results are listed elsewhere or left out. The source does not settle which construct or isoform was used.

target: T1, ETS1 (UniProt P14921); test: DAPPL (digital affinity profiling via proximity ligation, sequencing); conditions: 10 mM Tris-HCl pH 7.5, 50 mM NaCl, 1 mM DTT, 4% glycerol, room temperature, 30 min; GST-TFs on glutathione beads, 16-mer random dsDNA library, 0.1% …; high values mean tight binding; double strand, one strand shown; scale: fold enrichment (6-mer frequency, TF over GST control)
T1 sequence: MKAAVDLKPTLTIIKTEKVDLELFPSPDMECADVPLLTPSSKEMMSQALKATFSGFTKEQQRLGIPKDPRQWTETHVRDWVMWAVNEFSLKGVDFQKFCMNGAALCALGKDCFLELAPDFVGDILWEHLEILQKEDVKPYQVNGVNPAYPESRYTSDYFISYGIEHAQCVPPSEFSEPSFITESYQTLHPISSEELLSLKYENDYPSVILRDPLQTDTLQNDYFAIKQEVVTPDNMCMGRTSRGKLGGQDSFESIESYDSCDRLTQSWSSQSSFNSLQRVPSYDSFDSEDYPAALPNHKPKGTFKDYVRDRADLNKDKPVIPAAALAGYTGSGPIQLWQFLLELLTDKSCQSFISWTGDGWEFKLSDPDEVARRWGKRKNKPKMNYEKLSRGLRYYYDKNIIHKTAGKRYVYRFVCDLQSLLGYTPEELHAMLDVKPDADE

| Sequence | binding signal |
| --- | --- |
| GCCTAA | 1.14 |
| TGATGA | 1.32 |
| CTGTAC | 1.32 |
| CGCGCC | 1.14 |
| CCGTCA | 1.1 |
| ACATAG | 1.06 |
| AAATAG | 1.13 |
| GTATCC | 1.85 |
| CAAACC | 1.17 |
| CACCCT | 1.17 |
| GTTACA | 1.15 |
| TGATAT | 1.14 |
| AGCTCA | 1.13 |
| CGTTTT | 1.21 |
| TGCCCT | 1.18 |
| TTTCTG | 1.39 |
| GCTACG | 1.17 |
| ATACGG | 1.32 |
| CACTTT | 1.23 |
| TAACCA | 1.09 |

At a glance, some entries already given.

| Sequence | binding signal |
| --- | --- |
| AGCTCA | 1.13 |
| CGTTTT | 1.21 |
| TGCCCT | 1.18 |
| TTTCTG | 1.39 |
| GCTACG | 1.17 |
| ATACGG | 1.32 |
| CACTTT | 1.23 |
| TAACCA | 1.09 |

Further records

| Sequence | binding signal |
| --- | --- |
| CTCATC | 1.26 |
| TGCCGA | 1.1 |
| TCAACT | 1.27 |
| GTTATG | 1.12 |
| AAACTG | 1.26 |
| AATACC | 1.23 |
| ACTTCT | 1.6 |
| AATGCG | 1.25 |
| CTGCAT | 1.43 |
| ATTCTC | 1.23 |
| CACGCG | 1.27 |
| TTCGCT | 1.32 |
| GAATTG | 1.1 |
| ATTTGC | 1.41 |
| TGCGAC | 1.12 |
| TTCGAC | 1.51 |
| AAAACC | 1.15 |
| AATAAA | 1.27 |
| CATGCA | 1.01 |
| GATGTC | 1.23 |
